According to PMC4829694:
These are yes or no findings as the source states them, for the method shown. In cells and extracts the contact can be indirect. Here binding means that the protein was enriched with, or labelled near, the bait; the list need not be complete.

Amino acid sequences for entries named in this document (tags omitted).
UniProt P23772: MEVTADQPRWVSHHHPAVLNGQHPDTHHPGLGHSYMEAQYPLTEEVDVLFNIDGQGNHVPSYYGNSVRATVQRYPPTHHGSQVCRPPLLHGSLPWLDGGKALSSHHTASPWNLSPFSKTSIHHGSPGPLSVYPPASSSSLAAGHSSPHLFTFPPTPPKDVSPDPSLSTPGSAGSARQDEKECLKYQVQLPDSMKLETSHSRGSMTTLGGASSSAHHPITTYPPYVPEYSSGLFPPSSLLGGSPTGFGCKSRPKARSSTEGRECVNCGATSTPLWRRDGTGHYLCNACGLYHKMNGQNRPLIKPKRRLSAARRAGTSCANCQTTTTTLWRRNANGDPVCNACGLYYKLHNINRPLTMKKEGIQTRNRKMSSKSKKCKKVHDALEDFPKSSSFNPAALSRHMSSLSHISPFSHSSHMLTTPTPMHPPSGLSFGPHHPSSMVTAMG
UniProt P31749: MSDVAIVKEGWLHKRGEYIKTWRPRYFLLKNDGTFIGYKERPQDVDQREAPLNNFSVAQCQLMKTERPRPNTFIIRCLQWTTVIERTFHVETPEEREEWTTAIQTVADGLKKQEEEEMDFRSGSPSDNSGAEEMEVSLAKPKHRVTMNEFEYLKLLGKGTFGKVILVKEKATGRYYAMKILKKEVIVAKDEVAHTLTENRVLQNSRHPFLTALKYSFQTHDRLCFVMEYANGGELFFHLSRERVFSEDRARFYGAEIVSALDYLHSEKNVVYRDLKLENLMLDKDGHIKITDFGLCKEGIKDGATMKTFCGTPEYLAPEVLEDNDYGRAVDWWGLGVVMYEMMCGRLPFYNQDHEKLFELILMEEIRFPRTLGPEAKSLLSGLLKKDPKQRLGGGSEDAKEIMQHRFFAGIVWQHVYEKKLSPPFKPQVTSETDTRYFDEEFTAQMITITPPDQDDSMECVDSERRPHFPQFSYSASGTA

Molecular target: Flag-tagged Gata3 wild type (UniProt P23772)
Experiment: affinity purification with mass spectrometry; Flag-tagged Gata3 complexes immunopurified from 293T cells, resolved by SDS-PAGE (in-gel kinase assay with GST-Gata3 as substrate); the 55-kDa band analysed by LC-MS/MS

binding: binds
Substance: Akt1 (endogenous, found in Gata3 complexes from 293T cells) (from UniProt P31749 1-480) (enzyme)
